Consider 55 molecules from PubChem BioAssay AID2685 (National Center for Advancing Translational Sciences (NCATS), 2010).

The other results are listed elsewhere or left out. Further columns of the screen follow, without active or inactive calls. The list favours compounds with an active or inconclusive main result. The note in brackets gives the kind of curve behind each potency; many fits are weak.

A short description of this experiment: qHTS Assay for Lipid Storage Modulators in Drosophila S3 Cells.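 On cell number change: cells counted by Cell Tracker Red CMTPX staining in the red channel.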 To be noted: BODIPY lipid droplet fluorescence, 18-24 h; for cell number change: measured here: cell count max response, cells fed with added oleic acid. The essentials:
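Drosophila S3 cells loaded with oleic acid (400 uM, as added) and compounds at several concentrations; lipid droplets imaged by 488-nm laser-scanning cytometry, 500–530 nm intensity and object ratio to cell channel. Percent activity normalized to 20 uM Triacsin C.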

Setting [1] is: measured here: lipid fluorescence (Fed channel) AC50, cells fed with added oleic acid.
Where [2] appears, read: measured here: cell number channel AC50, cells fed with added oleic acid.

Regarding `Cc1ccc(S(=O)(=O)NC(C(=O)N2CCOCCOCCOCC2)C(C)C)cc1` (centres undefined), the cell number change came out at 8.57%. Also, the concentration at half-maximal activity (AC50) under setting [1] was 29.1 µM [falling, single point].

In the case of `CN(C)c1ccc(N=Nc2ccccc2Br)cc1`, the cell number change is -54.2%. In addition, the AC50 under setting [2] is 11.6 µM [falling, partial curve, poor fit]. Also, the half-maximal activity concentration (AC50) under setting [1] was 9.2 µM [falling, partial curve].

For the molecule `CCOc1ccccc1NC(=O)Cn1cnc2c(nnn2-c2cccc(OC)c2)c1=O`, the cell number change was -15.8%. Besides, the AC50 under setting [1] was 23.1 µM [falling, single point].

As for `CC(O)CN1CCN(C(=O)CN2C(=O)NC(c3ccccc3)(c3ccccc3)C2=O)CC1` (centres undefined), the cell number change is 11.6%. Moreover, under setting [1], the concentration at half-maximal activity (AC50) was 14.6 µM [rising, partial curve].

On to `CCOCCSC1=C(C#N)C(c2cccs2)C(C(C)=O)=C(C)N1` (centres undefined), for which the cell number change was 13.4%. Besides, the half-maximal activity concentration (AC50) under setting [1] is 6.51 µM [rising, single point].

As to `Cn1c(SCC(=O)NC2CC2)nnc1-c1cccs1`, the cell number change amounted to 0.54%. In addition, the concentration at half-maximal activity (AC50) under setting [1] is 29.1 µM [falling, single point].

For `CC(=O)Nc1c(C(=O)NCc2ccccc2)nnn1Cc1ccccc1`, the cell number change was 32.7%. For the same molecule, the AC50 under setting [2] is 9.2 µM [rising, partial curve].

For the molecule `CC1CCCC(NC(=O)COC(=O)/C=C/c2ccc3c(c2)OCO3)C1C` (centres undefined), the cell number change amounted to 0.104%. Also, the AC50 under setting [1] was 0.731 µM [rising, partial curve].

In the case of `CSc1nc2nccc(-c3ccc(Cl)cc3)n2n1`, the cell number change is -39%. Further, under setting [2], the AC50 was 23.1 µM [falling, single point]. Also, the half-maximal activity concentration (AC50) under setting [1] is 29.1 µM [falling, single point].

For `COCc1cc(Sc2ccc(Cl)cc2)nc(-c2ccccc2)n1`, the cell number change amounted to 9.94%. In addition, the AC50 under setting [1] is 6.51 µM [rising, single point].

`Cc1ccc2oc3c(c(=O)c2c1)C(c1cccc(Cl)c1)N(CCCN1CCOCC1)C3=O` (centres undefined): the AC50 was 2.91 µM [rising, single point] under setting [2] and 3.26 µM [rising, single point] under setting [1].

As to `CCc1ccc(N(C(=O)c2snc(C(N)=O)c2N)C(C(=O)NCC2CCCO2)c2cccs2)cc1` (centres undefined), the cell number change was -32.6%. Besides, the half-maximal activity concentration (AC50) under setting [2] is 29.1 µM [falling, single point]. For the same molecule, the half-maximal activity concentration (AC50) under setting [1] is 18.4 µM [rising, single point].

Regarding `CC(=O)c1cc2c(cc1NC(=O)c1cc(C)nn1-c1ccccc1)OCO2`, the cell number change is 21.6%. The AC50 under setting [1] is 0.291 µM [rising, full curve].

With `Cc1onc(-c2ccccc2)c1C(=O)Oc1cccnc1`, the AC50 is, setting by setting: under setting [2], 0.461 µM [rising, partial curve, poor fit]; under setting [1], 0.58 µM [rising, partial curve, poor fit].

Consider `Oc1cccc(C2c3[nH]c4ccccc4c3CCN2Cc2ccc3c(c2)CCO3)c1` (centres undefined), for which the cell number change is -34.7%. Further, the half-maximal activity concentration (AC50) under setting [2] is 16.4 µM [falling, single point]. Under setting [1], the AC50 was 29.1 µM [falling, single point].

For the molecule `COc1cccc2sc(Nc3nnc(-c4cccs4)o3)nc12`, the cell number change is -1.6%. Moreover, the half-maximal activity concentration (AC50) under setting [1] was 0.082 µM [falling, full curve, poor fit].

For `CCc1nc2ccccc2n1Cc1cc(=O)n2cc(C)ccc2n1`, the cell number change is 2.35%.

Turning to `Cc1nc(SCCC(=O)O)c2ccccc2n1`, the AC50 under setting [1] is 2.06 µM [falling, partial curve].

Consider `Cc1cc(/C=N/n2cnnc2)c(C)n1-c1ccc(OCc2ccc(Cl)cc2Cl)cc1`, for which the cell number change is -86.5%. For the same molecule, the AC50 under setting [2] was 25.9 µM [falling, single point]. For the same molecule, under setting [1], the AC50 was 20.6 µM [falling, single point].

Turning to `COc1ccc(NS(=O)(=O)c2cccs2)cn1`, the cell number change was -3%. Besides, under setting [1], the AC50 is 29.1 µM [falling, single point].

Take `O=C(CSc1nc(C(F)(F)F)cc(=O)[nH]1)Nc1cccc2ccccc12`: the cell number change is -0.161%. Moreover, under setting [2], the half-maximal activity concentration (AC50) was 1.03 µM [falling, partial curve, poor fit]. For the same molecule, the concentration at half-maximal activity (AC50) under setting [1] is 0.731 µM [falling, full curve].

For `N#Cc1c(NC(=O)CSc2ncn(-c3ccccc3)n2)sc2c1CCCC2`, the cell number change stood at 49.3%. Also, under setting [2], the AC50 was 4.11 µM [rising, partial curve]. Also, under setting [1], the AC50 was 11.6 µM [rising, partial curve].

For `NC(=O)OCC(COC(N)=O)c1ccccc1`, the cell number change is -2.43%. Moreover, the AC50 under setting [1] was 29.1 µM [rising, single point].

Consider `Nc1cc(=O)[nH]c(SCC(=O)Nc2ccc(S(=O)(=O)N3CCCCC3)cc2)n1`, for which the cell number change came to 9.54%. For the same molecule, the half-maximal activity concentration (AC50) under setting [1] is 0.184 µM [falling, full curve, poor fit].

Take `O=C(COc1ccc(-n2cnnn2)cc1)NCCc1ccc(F)cc1`: the AC50 under setting [1] is 29.1 µM [rising, single point].

Regarding `CCCC(=O)N1CCN(c2nc3ccc(CC)cc3s2)CC1`, the cell number change was -8.5%.

Turning to `CCNC(=S)Nc1ccc(Cc2nc3ccccc3[nH]2)cc1`, the cell number change was -33.3%. Besides, the concentration at half-maximal activity (AC50) under setting [1] was 5.17 µM [falling, full curve, poor fit].

Regarding `c1ccc(-c2csc(NC3CCCCC3)n2)cc1`, the cell number change stood at 19%. For the same molecule, the AC50 under setting [1] is 29.1 µM [rising, single point].

On to `O=C(Cn1cnc2ccccc2c1=O)Nc1ccccc1N1CCOCC1`, for which the concentration at half-maximal activity (AC50) under setting [2] is 0.231 µM [rising, full curve, poor fit] and the AC50 under setting [1] was 0.146 µM [rising, full curve, poor fit].

As to `O=C(O)C1CC(=O)N(c2ccc(OCc3ccc(Cl)cc3Cl)cc2)C1` (centres undefined), the cell number change was found to be 25.7%. For the same molecule, the concentration at half-maximal activity (AC50) under setting [1] is 1.84 µM [falling, partial curve].

As for `CCOc1ccc(/C=N/NC(=O)c2nnn(-c3nonc3N)c2-c2ccc(OCC)cc2)cc1`, the AC50 by setting is: under setting [2], 0.00517 µM [falling, full curve, poor fit]; under setting [1], 3.66 µM [rising, single point].

For the molecule `CCOC(=O)Cc1csc(NC(=S)NC(=O)c2cc(OC)cc(OC)c2)n1`, the cell number change was -0.2%.

As to `COC(=O)c1ccc(NC(=S)N2CCN(C(=O)c3ccco3)CC2)cc1`, the cell number change was found to be 13.6%.

Take `O=C(Cc1ccc(-c2ccccc2)cc1)NCCN1CCOCC1`: the cell number change worked out at 28.1%. Moreover, the AC50 under setting [1] is 5.17 µM [rising, partial curve].

Consider `COc1ccc(CNC(=O)CCCn2nc(C)n3ccnc3c2=O)cc1`, for which the cell number change was 2.88%. Further, the AC50 under setting [1] is 1.3 µM [rising, full curve, poor fit].

Take `COc1ccc(C(CC(=O)O)N2C(=O)CCC2=O)cc1` (centres undefined): the cell number change stood at 6.02%. Also, the AC50 under setting [1] was 29.1 µM [rising, single point].

In the case of `CC1C=CCC2C(=O)N(c3cccc(C(=O)N4CCN(c5ccc(F)cc5)CC4)c3)C(=O)C12` (centres undefined), the cell number change worked out at 10.4%. Further, the AC50 under setting [1] is 29.1 µM [rising, single point].

Turning to `O=C(O)c1ccc(COc2ccc3c(c2)CCC3)cc1`, the cell number change is -8.86%. Besides, the concentration at half-maximal activity (AC50) under setting [1] was 0.651 µM [falling, full curve, poor fit].

Turning to `COc1cc(/C=C2/SC(=Nc3ccc(O)cc3)NC2=O)ccc1O`, the cell number change was -16.4%. For the same molecule, the concentration at half-maximal activity (AC50) under setting [2] was 6.51 µM [falling, single point]. Under setting [1], the AC50 was 3.66 µM [falling, full curve, poor fit].

For `Cc1ccc(S(=O)(=O)/N=C2/NC(=O)/C(=C/c3cc([N+](=O)[O-])ccc3O)S2)cc1`, the cell number change is -82.1%. For the same molecule, the AC50 under setting [2] is 29.1 µM [falling, partial curve, poor fit].

Take `Cc1ccc(-c2cc(C(F)(F)F)n3nc(C(=O)Nc4c(C)n(C)n(-c5ccccc5)c4=O)cc3n2)cc1`: the cell number change worked out at 62.6%. Also, under setting [2], the half-maximal activity concentration (AC50) is 29.1 µM [rising, single point]. For the same molecule, the half-maximal activity concentration (AC50) under setting [1] was 0.517 µM [falling, single point].

Regarding `COc1cccc(NC(=O)CCC(=O)N2CC(C)Oc3ccc(C)cc32)c1` (centres undefined), the cell number change is -8.65%. Also, the half-maximal activity concentration (AC50) under setting [1] is 29.1 µM [falling, single point].

Consider `CCOC(=O)Cn1cnc2c(nnn2-c2cccc(Cl)c2)c1=O`, for which the cell number change stood at 1.39%.

On to `O=c1c2ccccc2ncn1Cc1cccc2ccccc12`, for which the cell number change was 144%. Further, the concentration at half-maximal activity (AC50) under setting [2] was 29.1 µM [rising, single point]. The AC50 under setting [1] was 23.1 µM [rising, partial curve].

On to `CC1CN(C(=S)NC(=O)c2ccc(Cl)cc2)CC(C)O1` (centres undefined), for which the cell number change is -0.482%. The half-maximal activity concentration (AC50) under setting [1] was 0.0651 µM [rising, full curve, poor fit].

As to `Cc1cc(C(=O)O[C@H]2[C@H](C)NS(=O)(=O)[C@H]3C[C@@H]4C=C[C@]23O4)cc([N+](=O)[O-])c1`, the cell number change is -32.1%. The concentration at half-maximal activity (AC50) under setting [2] is 3.66 µM [falling, full curve, poor fit]. Under setting [1], the concentration at half-maximal activity (AC50) is 0.259 µM [falling, partial curve, poor fit].

In the case of `CCC(C)(C(=O)NC1CCCCC1)N(CC1CCCO1)C(=O)c1ccccn1` (centres undefined), the AC50 under setting [2] was 0.116 µM [falling, full curve, poor fit] and the half-maximal activity concentration (AC50) under setting [1] was 0.651 µM [falling, partial curve, poor fit].

On to `NC(=O)Cn1c(=O)n(CCC(=O)NCCSCc2ccccc2)c(=O)c2ccccc21`, for which, under setting [2], the AC50 was 2.31 µM [rising, single point].

Consider `CC(=O)OC(C(=O)NCS(=O)(=O)c1ccc(C)cc1)c1cccnc1` (centres undefined), for which the cell number change was 0.448%. Also, the AC50 under setting [1] was 0.58 µM [rising, single point].

As for `Cc1onc(-c2ccccc2)c1C(=O)NC(=S)NNC(=O)c1ccncc1`, the AC50 is, setting by setting: under setting [2], 0.58 µM [rising, single point]; under setting [1], 0.58 µM [rising, single point].

Consider `NC(=O)c1c(NC(=O)CSc2nnc(Cc3ccccc3)n2Cc2ccco2)sc2c1CCC2`, for which the cell number change is 33.5%. Also, the AC50 under setting [2] was 8.2 µM [rising, partial curve].

For `O=[N+]([O-])c1ccc(Cl)c(/C=N/N2CCN(c3ccccc3)CC2)c1`, the cell number change is -33.9%. Further, the half-maximal activity concentration (AC50) under setting [2] is 0.731 µM [falling, partial curve, poor fit]. Moreover, the AC50 under setting [1] is 0.116 µM [falling, partial curve, poor fit].

For `Cc1nnc(NC(=O)CN2C(=O)NC3(CCCC3)C2=O)s1`, the cell number change is -34.7%. The AC50 under setting [1] is 0.82 µM [falling, full curve].

Turning to `Cc1ccc(C)c(-c2nc3cc(N)ccc3o2)c1`, the cell number change was 220%. Further, the concentration at half-maximal activity (AC50) under setting [2] is 2.06 µM [rising, full curve]. Moreover, under setting [1], the half-maximal activity concentration (AC50) was 1.84 µM [rising, full curve].

With `COCC1OS(=O)(=O)NC(CC(=O)SC(C)(C)C)C1C` (centres undefined), the cell number change amounted to 6.15%.
